Library screen at single concentrations

The values are deposited in ChEMBL (CHEMBL3988442, “University of Dundee, Small-Polar-MMV Screening Library” (2021)).

Results are given as percent effect.
The controls that fix the scale are not given in the record; negative values are as filed.
Compounds were drawn at random from those tested, without regard to their results.

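Assay of Toxoplasma gondii numbers, read through their beta-galactosidase reporter with a colour substrate. Tested at 50 µM. Higher reads as fewer parasites (inferred from which compounds were picked for retests). About 18,000 compounds were tested under these conditions; 0.94% (about 170) showed 50% or more at least once.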

* COCC(C)(N)C(N)=O (stereo not shown) : -13.99%
* c1ncn(CCN2CCOC3(CCCC3)C2)n1 : 5.341%
* CC1(C)CN(c2ccnc3ccccc23)CC[S+]1[O-] (stereo not shown) : 6.751%
* CNc1nc(NCC(C)CO)ncc1Br (stereo not shown) : 4.891%
* N#CCc1ccc(-n2cnnn2)cc1 : 1.696%
* NCC(=O)Nc1cccc(F)c1 : 16.48%
* O=C(Nc1ccc(-n2cncn2)cc1)C1CCCN1 (stereo not shown) : 20.96%
* O=C([C@@H]1CCCN1)N1CCCC1c1cccnc1 (stereo partly shown) : -9.249%
* COc1cccc2c1CCN(C(=O)c1cnn(C)c1)C2 : -5.734%
* COc1cccc(SCC(=O)N[C@@H]2CC[C@@H](N)C2)c1 : 13.53%
* CSC1(C)C(=O)Nc2c(C#N)cccc21 (stereo not shown) : 10.11%
* Cc1cccc(C(=O)NCC(O)c2cccnc2)n1 (stereo not shown) : 1.572%
* Cn1nccc1C(=O)Nc1cnn(CC(F)(F)F)c1 : -29.38%
* Nc1ccc(N2CCNCC2)cn1 : -6.082%
* CCc1nnc(CNC(=O)c2ccc3c(c2)OCO3)s1 : -12.28%
* COc1cccc(CN)c1C : 19.32%
* O=C(c1ccc2ncsc2c1)N1CCOCC(CO)C1 (stereo not shown) : -4.296%
* COCCOC1CCCNC1 (stereo not shown) : 5.016%
* CNC(=O)c1nn(-c2ccc(F)cc2)c2c1CCCC2 : -2.01%
* N#CCCn1cc(C(N)=O)cn1 : -0.3842%
* CCn1ncnc1CN1CCC(O)(c2ccccc2)C1 (stereo not shown) : -0.1814%
* O=C(NCC1CNCCOC1)NC1CCCCC1 (stereo not shown) : -6.293%
* CN1CCN(CC(N)=O)CC1 : 0%
* O=C(CC1C(=O)Nc2ncnn21)Nc1ccccc1F (stereo not shown) : -17.03%
* COc1cccc(N2CCNCC2C)c1 (stereo not shown) : 93.04%
* Cc1cc(CNC(=O)NCc2ncnn2C)c(C)o1 : -4.575%
* COc1cccc(CO)n1 : -5.543%
* COCc1nn(Cc2sc(C)nc2C)c(=O)o1 : -6.784%
* COc1ccc(C(O)CNC(=O)Nc2nncs2)cc1 (stereo not shown) : -23.04%
* NCC(=O)N1CCCCC1 : -3.849%
* Cc1cc(C(=O)NCCCN(C)C)c(C)o1 : 0.08011%
* Cc1ccc(F)cc1S(=O)(=O)N1CCN[C@H](C)C1 : -0.3006%
* CC(SCCN1CCOCC1)C(=O)N(C)C(C)C (stereo not shown) : -0.2147%
* Cc1ccccc1C1CNC(=O)C1 (stereo not shown) : -5.492%
* COCc1cccc(C(=O)N2CC[C@@](C)(O)[C@@H](O)C2)n1 : -11.86%
* NC1CCCN(c2ccccc2Cl)C1=O (stereo not shown) : -1.681%
* NC(Cc1ccccn1)C(F)(F)F (stereo not shown) : 6.582%
* CC(C)C(Nc1ccncc1Cl)C(=O)N1CCOCC1 (stereo not shown) : -3.904%
* CCc1c(C)nn(CCNC(=O)[C@H](C)NC)c1C : -8.309%
* COc1cc(CNn2cnnc2)ccc1OCC(N)=O : -24.8%
* CC(=O)Nc1ccc(-c2ccc(C#N)nc2)cc1 : -1.432%
* CCCC(=O)NCCCNC(=O)c1ccc(C)nc1 : -3.506%
* Cc1nccn1CCCN1C[C@H]2CC[C@@H](C1)[C@H]2N : 10.03%
* CCCn1cc(NC(=O)C2CCCN2)ccc1=O (stereo not shown) : -1.167%
* Cc1cccc(NC(=O)NCCCn2ccnc2)n1 : -1.716%
* COc1c(CC(O)CO)cc2c(c1OC)OCO2 (stereo not shown) : -1.536%
* CCCOc1ccc(CNC(=O)c2cc[nH]n2)cn1 : -2.927%

5 of the entries, repeated:

SMILES	Percent Effect
COCc1nn(Cc2sc(C)nc2C)c(=O)o1	-6.784%
COc1c(CC(O)CO)cc2c(c1OC)OCO2 (stereo not shown)	-1.536%
CC1(C)CN(c2ccnc3ccccc23)CC[S+]1[O-] (stereo not shown)	6.751%
CCc1nnc(CNC(=O)c2ccc3c(c2)OCO3)s1	-12.28%
COc1cc(CNn2cnnc2)ccc1OCC(N)=O	-24.8%